From article PMC2712759, “Hsp70 Chaperones and Type I PRMTs Are Sequestered at Intranuclear Inclusions Caused by Polyalanine Expansions in PABPN1” (PLoS ONE, 2009)
These are yes or no findings as the source states them, for the method shown. Binding seen in cells or lysates may run through a third protein. Some binding calls cover weakened binding; strength is not graded here. Where a sequence is shown, tags or fusion partners need not be part of it.

The chains behind the UniProt entries cited, without tags or fusion partners.
UniProt Q9JIF0: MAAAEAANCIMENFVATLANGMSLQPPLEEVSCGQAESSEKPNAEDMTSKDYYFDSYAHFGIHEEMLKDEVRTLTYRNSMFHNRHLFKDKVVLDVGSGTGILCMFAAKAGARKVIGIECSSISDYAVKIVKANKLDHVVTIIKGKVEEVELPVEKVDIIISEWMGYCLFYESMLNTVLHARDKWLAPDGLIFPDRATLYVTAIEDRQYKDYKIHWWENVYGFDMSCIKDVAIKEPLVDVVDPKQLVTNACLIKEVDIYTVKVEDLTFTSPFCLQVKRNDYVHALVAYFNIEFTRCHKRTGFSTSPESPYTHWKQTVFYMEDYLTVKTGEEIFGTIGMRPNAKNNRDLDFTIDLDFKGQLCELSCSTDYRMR
UniProt Q922H1: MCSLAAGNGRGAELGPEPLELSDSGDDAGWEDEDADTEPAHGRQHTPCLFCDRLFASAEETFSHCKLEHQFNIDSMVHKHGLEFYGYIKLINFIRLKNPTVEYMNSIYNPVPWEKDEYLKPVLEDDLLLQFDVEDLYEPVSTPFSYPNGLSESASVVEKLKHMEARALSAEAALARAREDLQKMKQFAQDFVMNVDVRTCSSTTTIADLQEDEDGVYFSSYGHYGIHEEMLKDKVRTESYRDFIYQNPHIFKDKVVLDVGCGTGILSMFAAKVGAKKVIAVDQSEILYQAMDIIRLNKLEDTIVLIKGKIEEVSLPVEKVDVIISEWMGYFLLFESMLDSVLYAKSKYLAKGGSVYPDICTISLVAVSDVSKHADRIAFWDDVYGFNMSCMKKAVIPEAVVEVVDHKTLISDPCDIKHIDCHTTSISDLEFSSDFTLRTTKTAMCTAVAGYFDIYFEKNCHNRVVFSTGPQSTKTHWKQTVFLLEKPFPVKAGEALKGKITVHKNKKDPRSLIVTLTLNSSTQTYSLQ

Legend:
[1] = target: T1, expanded human PABPN1, tract of 17 alanine residues, His-tagged, biotinylated (human) (UniProt Q86U42); assay: pull-down; biotinylated His-PABPN1 (2 µg) on streptavidin-agarose beads, incubated with RNase A-treated extracts of C2 myoblasts and myotubes, 4 h at 4°C, 20 mM Tris pH 8.0, 200 mM KCl, 10% glycerol; bound proteins detected by immunoblot; only the target purified
T1 sequence (chain, biotin (EZ-Link PEO-Maleimide Activated Biotin)): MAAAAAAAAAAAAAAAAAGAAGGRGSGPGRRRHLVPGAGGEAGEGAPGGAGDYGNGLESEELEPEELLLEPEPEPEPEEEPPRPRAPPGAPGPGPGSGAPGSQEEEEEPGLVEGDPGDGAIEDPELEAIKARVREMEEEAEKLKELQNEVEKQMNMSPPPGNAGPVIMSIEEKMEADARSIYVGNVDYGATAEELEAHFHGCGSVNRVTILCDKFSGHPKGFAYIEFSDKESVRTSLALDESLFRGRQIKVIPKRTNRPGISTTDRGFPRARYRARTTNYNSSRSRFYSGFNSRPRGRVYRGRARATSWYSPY

[2] = target: T2, normal human PABPN1 (poly(A)-binding protein nuclear 1), homopolymer of 10 alanine residues, His-tagged, biotinylated (human) (UniProt Q86U42); assay: as above
T2 sequence (chain, biotin (EZ-Link PEO-Maleimide Activated Biotin)): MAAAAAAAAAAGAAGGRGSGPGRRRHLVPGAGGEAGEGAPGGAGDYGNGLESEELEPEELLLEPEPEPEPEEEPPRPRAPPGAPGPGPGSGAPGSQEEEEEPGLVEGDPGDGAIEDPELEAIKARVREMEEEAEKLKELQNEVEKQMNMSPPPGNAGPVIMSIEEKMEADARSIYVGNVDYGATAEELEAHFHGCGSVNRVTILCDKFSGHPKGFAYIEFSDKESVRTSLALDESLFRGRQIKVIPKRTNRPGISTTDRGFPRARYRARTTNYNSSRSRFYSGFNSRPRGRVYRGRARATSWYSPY

binding [1]	binding [2]	Substance
binds	binds	PRMT1 (protein arginine methyl transferase 1) (from UniProt Q9JIF0 1-371) (enzyme)
binds	binds	PRMT3 (protein arginine methyl transferase 3) (from UniProt Q922H1 1-528) (enzyme)
